{"source": "PubChem BioAssay AID652248 (Drosophila RNAi Screening Center, 2013)", "purpose": "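Kinases and phosphatases whose loss pushes fly blood cells toward elongated shapes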 (primary screen)", "system": "cultured Drosophila hemocytes", "knock-down reagent": "long dsRNA against Drosophila genes", "measured": "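Automated microscopy of stained actin, tubulin and nuclei; single-cell shape measures assigned to five reference shape types, giving a score per dsRNA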", "reading the numbers": "elongated score: higher = more elongated bipolar cells", "call rule": "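a gene counts as active when its knock-down clearly increases the elongated score; a low similarity score was then used to rank the actives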", "note": "The deposit covers 863 reagents; this is a part drawn at random. Over the whole deposit, 32 (3.7%) are marked active. 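Calls also used reproducibility and a similarity ranking whose scores are not deposited; many active genes show only modest elongated scores.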 Entries without a mark were called inactive. Not all columns of the deposit are shown. Not given: the amount of reagent, the time to read-out."}
{"gene": "IKKepsilon (I-kappaB kinase epsilon)", "DRSC id": "DRSC03550", "elongated score, rep 1": 0.02}
{"gene": "Pp1-87B (Protein phosphatase 1 at 87B)", "DRSC id": "DRSC16794", "elongated score, rep 1": 1.1}
{"gene": "Pp1-87B (Protein phosphatase 1 at 87B)", "DRSC id": "DRSC23299", "elongated score, rep 1": -0.53}
{"gene": "Pp1-87B (Protein phosphatase 1 at 87B)", "DRSC id": "DRSC27290", "elongated score, rep 1": -0.53}
{"gene": "Shark (SH2 ankyrin repeat kinase)", "DRSC id": "DRSC07680", "elongated score, rep 1": -0.44}
{"gene": "Shark (SH2 ankyrin repeat kinase)", "DRSC id": "DRSC28527", "elongated score, rep 1": 0.35}
{"gene": "Dgk (Diacyl glycerol kinase)", "DRSC id": "DRSC05064", "elongated score, rep 1": 0.68}
{"gene": "Dgk (Diacyl glycerol kinase)", "DRSC id": "DRSC05065", "elongated score, rep 1": -0.21}
{"gene": "Dgk (Diacyl glycerol kinase)", "DRSC id": "DRSC06782", "elongated score, rep 1": 3.14, "elongated score, rep 2": -0.53}
{"gene": "Dgk (Diacyl glycerol kinase)", "DRSC id": "DRSC25166", "elongated score, rep 1": 4.96}
{"gene": "Pp4-19C (Protein phosphatase 19C)", "DRSC id": "DRSC20559", "elongated score, rep 1": -0.53}
{"gene": "Pp4-19C (Protein phosphatase 19C)", "DRSC id": "DRSC21251", "elongated score, rep 1": -0.53}
{"gene": "Pp4-19C (Protein phosphatase 19C)", "DRSC id": "DRSC23319", "elongated score, rep 1": 4.31}
{"gene": "Pp4-19C (Protein phosphatase 19C)", "DRSC id": "DRSC26053", "elongated score, rep 1": 0.6}
{"gene": "dnk (deoxyribonucleoside kinase)", "DRSC id": "DRSC16933", "elongated score, rep 1": 0.09}
{"gene": "dnk (deoxyribonucleoside kinase)", "DRSC id": "DRSC29240", "elongated score, rep 1": 5.08}

An excerpt from above, reduced to “elongated score, rep 1”.
Dgk (Diacyl glycerol kinase) [DRSC25166]	4.96
Pp4-19C (Protein phosphatase 19C) [DRSC20559]	-0.53

The results go on:
{"gene": "mnb (minibrain)", "DRSC id": "DRSC20353", "elongated score, rep 1": -0.53}
{"gene": "mnb (minibrain)", "DRSC id": "DRSC23347", "elongated score, rep 1": -0.25}
{"gene": "mnb (minibrain)", "DRSC id": "DRSC28430", "elongated score, rep 1": 0}
{"gene": "CG17528", "DRSC id": "DRSC07761", "elongated score, rep 1": -0.53}
{"gene": "Cdk4 (Cyclin-dependent kinase 4)", "DRSC id": "DRSC07358", "elongated score, rep 1": "1.53 (active)"}
{"gene": "Cdk4 (Cyclin-dependent kinase 4)", "DRSC id": "DRSC27263", "elongated score, rep 1": "4.54 (active)"}
{"gene": "CG9784", "DRSC id": "DRSC20210", "elongated score, rep 1": 0.65}
{"gene": "CG9784", "DRSC id": "DRSC28204", "elongated score, rep 1": 0.47}
{"gene": "Nak (Numb-associated kinase)", "DRSC id": "DRSC03379", "elongated score, rep 1": -0.01}
{"gene": "Nak (Numb-associated kinase)", "DRSC id": "DRSC27565", "elongated score, rep 1": 2.88}
{"gene": "SRPK (SR Protein Kinase)", "DRSC id": "DRSC07090", "elongated score, rep 1": -0.53}
{"gene": "SRPK (SR Protein Kinase)", "DRSC id": "DRSC28162", "elongated score, rep 1": -0.31}
{"gene": "Irbp (Inverted repeat-binding protein)", "DRSC id": "DRSC17007", "elongated score, rep 1": -0.53}
{"gene": "Irbp (Inverted repeat-binding protein)", "DRSC id": "DRSC23317", "elongated score, rep 1": -0.53}
{"gene": "Irbp (Inverted repeat-binding protein)", "DRSC id": "DRSC29386", "elongated score, rep 1": 3.19}
{"gene": "PpD6 (Protein phosphatase D6)", "DRSC id": "DRSC00774", "elongated score, rep 1": -0.21}
{"gene": "PpD6 (Protein phosphatase D6)", "DRSC id": "DRSC23331", "elongated score, rep 1": 0.58}
{"gene": "Cdc37 (Cell division cycle 37)", "DRSC id": "DRSC08648", "elongated score, rep 1": 2.84}
{"gene": "Cdc37 (Cell division cycle 37)", "DRSC id": "DRSC27723", "elongated score, rep 1": 2.3}
